No constants are given. Whether binding was seen depends on the method and setting. For part of these data: A result given as binding can be weak or reduced; the word gives no strength. One block for each binder: values may come before it.
Legend:
[1] = biological target: T1, human MET ECD (human, UniProt P08581 25-932); assay: ELISA, protein in solid phase
T1 construct: range 1-932; recombinant ECD made by the applicants; the stated range begins at residue 1, so it includes the signal peptide of the entry; also called hMET; hMET ECD

[2] = biological target: llama-human MET chimeric protein CH1; assay: ELISA, protein in solid phase
[3] = biological target: llama-human MET chimeric protein CH3; assay: ELISA, protein in solid phase
[4] = biological target: llama MET ECD (llama); assay: ELISA, protein in solid phase
[5] = biological target: llama-human MET chimeric protein CH4; assay: ELISA, protein in solid phase
[6] = biological target: llama-human MET chimeric protein CH7; assay: ELISA, protein in solid phase
[7] = biological target: llama-human MET chimeric protein CH5; assay: ELISA, protein in solid phase
[8] = biological target: llama-human MET chimeric protein CH6; assay: ELISA, protein in solid phase
[9] = biological target: llama-human MET chimeric protein CH2; assay: ELISA, protein in solid phase
[10] = biological target: T1, human MET ECD; assay: ELISA, MET ECD in solid phase
[11] = biological target: T2, mouse MET ECD (mouse, UniProt P16056 25-931); assay: ELISA, MET ECD in solid phase
T2 construct: range 1-931; recombinant ECD made by the applicants; the stated range begins at residue 1; also called mMET; mMET ECD

[12] = biological target: T1, human MET ECD; assay: SPR and ELISA, periplasmic Fab
[13] = biological target: T2, mouse MET ECD; assay: SPR and ELISA, periplasmic Fab

B2: 71G3 Fab (Fab, V domains shown)
VH: QVQLVESGGGLVQPGGSLRVSCAASGFTFSTYYMSWVRQAPGKGLEWVSDIRTDGGTYYADSVKGRFTMSRDNAKNTLYLQMNSLKPEDTALYYCARTRIFPSGYDYWGQGTQVTVSS
VL: QAVVTQEPSLSVSPGGTVTLTCGLSSGSVTTSNYPGWFQQTPGQAPRTLIYNTNSRHSGVPSRFSGSISGNKAALTIMGAQPEDEADYYCSLYPGSTTVFGGGTHLTVL
notes: llama Fab (VH-CH1 and lambda VL-CL) with MYC flag, crude periplasmic extract
binding [12]: binds
binding [13]: binds

B3: 72F8 Fab (Fab, V domains shown)
VH: ELQLVESGGGLVQPGGSLRLSCAASGFTFSNYVMSWVRQAPGKGLEWVSDTNSGGSTSYADSVKGRFTISRDNAKNTLYLQMNSLKPEDTALYYCARSFFYGMNYWGKGTQVTVSS
VL: QSALTQPPSLSASPGSSVRLTCTLSSGNNIGSYDISWYQQKAGSPPRYLLNYYTDSRKHQDSGVPSRFSGSKDASANAGLLLISGLQPEDEADYYCSAYKSGSYRWVFGGGTHVTVL
notes: as for B2
binding [12]: binds
binding [13]: binds

B5: 76H10 chimeric llama-human IgG1 mAb (antibody, V domains shown)
VH: QLQLVESGGGLVQPGGSLRVSCTASGFTFNTYYMTWVRQAPGKGLEWVSDINSGGGTYYADSVKGRFTISRDNAKNTLYLQMNSLKPEDTALYYCVRVRIWPVGYDYWGQGTQVTVSS
VL: QAVVTQEPSLSVSPGGTVTLTCGLSSGSVTTSNYPGWFQQTPGQAPRTLIYNTNNRHSGVPSRFSGSISGNKAALTITGAQPEDEADYYCSLYTGSYTTVFGGGTHLTVL
notes: llama VH on human IgG1 CH1-CH2-CH3, llama VL on human lambda CL
binding [1]: binds
binding [2]: binds
binding [3]: binds
binding [4]: no binding (tested: 0-20 nM)
binding [5]: binds
binding [6]: no binding (tested: 0-20 nM)
binding [7]: binds
binding [8]: no binding (tested: 0-20 nM)
binding [9]: binds
binding [10]: binds
binding [11]: binds

B6: 76H10 Fab (Fab, V domains shown)
VH: QLQLVESGGGLVQPGGSLRVSCTASGFTFNTYYMTWVRQAPGKGLEWVSDINSGGGTYYADSVKGRFTISRDNAKNTLYLQMNSLKPEDTALYYCVRVRIWPVGYDYWGQGTQVTVSS
VL: QAVVTQEPSLSVSPGGTVTLTCGLSSGSVTTSNYPGWFQQTPGQAPRTLIYNTNNRHSGVPSRFSGSISGNKAALTITGAQPEDEADYYCSLYTGSYTTVFGGGTHLTVL
notes: as for B2
binding [12]: binds
binding [13]: binds

B7: 71A3 Fab (Fab, V domains shown)
VH: EVQLVESGGGLVQPGGSLRLSCAASGFSFKDYDITWVRQAPGKGLEWVSTITSRSGSTSYVDSVKGRFTISGDNAKNTLYLQMNSLKPEDTAVYYCAKVYATTWDVGPLGYGMDYWGKGTLVTVSS
VL: SYELTQPSALSVTLGQTAKITCQGGSLGSSYAHWYQQKPGQAPVLVIYDDDSRPSGIPERFSGSSSGGTATLTISGAQAEDEGDYYCQSADSSGNAAVFGGGTHLTVL
notes: as for B2
binding [12]: binds
binding [13]: binds

B10: 71C3 Fab (Fab, V domains shown)
VH: QLQLVESGGGLVQPGGSLRLSCAASGFTFSSHAMSWVRQAPGKGLEWVSAINSGGGSTSYADSVKGRFTISRDNAKNTLYLQMNSLKPEDTAVYYCAKELRFDLARYTDYEAWDYWGQGTQVTVSS
VL: SYELTQPSALSVTLGQTAKITCQGGSLGSSYAHWYQQKPGQAPVLVIYDDDSRPSGIPERFSGSSSGGTATLTISGAQAEDEGDYYCQSADSSGNAAVFGGGTHLTVL
notes: as for B2
binding [12]: binds
binding [13]: binds

B12: 76G7 Fab (Fab, V domains shown)
VH: QVQLVESGGNLVQPGGSLRLSCAASGFTFSNYYMSWVRQAPGKGLEWVSDIYSDGSTTWYSDSVKGRFTISRDNAKNTLSLQMNSLKSEDTAVYYCARVKIYPGGYDAWGQGTQVTVSS
VL: QAGLTQPPSVSGSPGKTVTISCAGNSSDVGYGNYVSWYQQFPGMAPKLLIYLVNKRASGITDRFSGSKSGNTASLTISGLQSEDEADYYCASYTGSNNIVFGGGTHLTVL
notes: as for B2
binding [12]: binds
binding [13]: binds

Other lines, results leading:

binding [1]: binds
binding [2]: binds
binding [3]: binds
binding [4]: no binding (tested: 0-20 nM)
binding [5]: binds
binding [6]: no binding (tested: 0-20 nM)
binding [7]: binds
binding [8]: no binding (tested: 0-20 nM)
binding [9]: binds
binding [10]: binds
binding [11]: binds
B1: 71G3 chimeric llama-human IgG1 mAb (antibody, V domains shown)
VH: QVQLVESGGGLVQPGGSLRVSCAASGFTFSTYYMSWVRQAPGKGLEWVSDIRTDGGTYYADSVKGRFTMSRDNAKNTLYLQMNSLKPEDTALYYCARTRIFPSGYDYWGQGTQVTVSS
VL: QAVVTQEPSLSVSPGGTVTLTCGLSSGSVTTSNYPGWFQQTPGQAPRTLIYNTNSRHSGVPSRFSGSISGNKAALTIMGAQPEDEADYYCSLYPGSTTVFGGGTHLTVL
notes: as for B5

binding [12]: binds
binding [13]: binds
B4: 71G2 Fab (Fab, V domains shown)
VH: EVQLQESGGGLVQPGGSLRLSCAASGFTFSIYDMSWVRQAPGKGLEWVSTINSDGSSTSYVDSVKGRFTISRDNAKNTLYLQMNSLKPEDTAVYYCAKVYGSTWDVGPMGYGMDYWGKGTLVTVSS
VL: SSALTQPSALSVSLGQTARITCQGGSLGSSYAHWYQQKPGQAPVLVIYGDDSRPSGIPERFSGSSSGGTATLTISGAQAEDEDDYYCQSTDSSGNTVFGGGTRLTVL
notes: as for B2

binding [1]: binds
binding [2]: binds
binding [3]: binds
binding [4]: no binding (tested: 0-20 nM)
binding [5]: no binding (tested: 0-20 nM)
binding [6]: binds
binding [7]: no binding (tested: 0-20 nM)
binding [8]: binds
binding [9]: binds
binding [10]: binds
binding [11]: binds
B8: 71D6 chimeric llama-human IgG1 mAb (antibody, V domains shown)
VH: ELQLVESGGGLVQPGGSLRLSCAASGFTFSSYGMSWVRQAPGKGLEWVSAINSYGGSTSYADSVKGRFTISRDNAKNTLYLQMNSLKPEDTAVYYCAKEVRADLSRYNDYESYDYWGQGTQVTVSS
VL: QPVLNQPSALSVTLGQTAKITCQGGSLGARYAHWYQQKPGQAPVLVIYDDDSRPSGIPERFSGSSSGGTATLTISGAQAEDEGDYYCQSADSSGSVFGGGTHLTVL
notes: as for B5

binding [12]: binds
binding [13]: binds
B9: 71D6 Fab (Fab, V domains shown)
VH: ELQLVESGGGLVQPGGSLRLSCAASGFTFSSYGMSWVRQAPGKGLEWVSAINSYGGSTSYADSVKGRFTISRDNAKNTLYLQMNSLKPEDTAVYYCAKEVRADLSRYNDYESYDYWGQGTQVTVSS
VL: QPVLNQPSALSVTLGQTAKITCQGGSLGARYAHWYQQKPGQAPVLVIYDDDSRPSGIPERFSGSSSGGTATLTISGAQAEDEGDYYCQSADSSGSVFGGGTHLTVL
notes: as for B2

binding [12]: binds
binding [13]: binds
B11: 71D4 Fab (Fab, V domains shown)
VH: ELQLVESGGGLVQPGGSLRLSCAASGFTFSGYGMSWVRQAPGKGLEWVSDINSGGGSTSYADSVKGRFTISRDNAKNTLYLQMNSLKPEDTAVYYCAKDMRLYLARYNDYEAWDYWGQGTQVTVSS
VL: SSALTQPSALSVTLGQTAKITCQGGSLGSSYAHWYQQKPGQAPVLVIYDDDSRPSGIPERFSGSSSGGTATLTISGAQAEDEGDYYCQSADSSGNAAVFGGGTHLTVL
notes: as for B2

Reference: US20210087281A1 (AGOMAB THERAPEUTICS, published 2021)
